From publication PMC4872732 come the findings set out here.

By UniProt entry, the sequences of proteins in these tests, tags left out.
UniProt Q03347: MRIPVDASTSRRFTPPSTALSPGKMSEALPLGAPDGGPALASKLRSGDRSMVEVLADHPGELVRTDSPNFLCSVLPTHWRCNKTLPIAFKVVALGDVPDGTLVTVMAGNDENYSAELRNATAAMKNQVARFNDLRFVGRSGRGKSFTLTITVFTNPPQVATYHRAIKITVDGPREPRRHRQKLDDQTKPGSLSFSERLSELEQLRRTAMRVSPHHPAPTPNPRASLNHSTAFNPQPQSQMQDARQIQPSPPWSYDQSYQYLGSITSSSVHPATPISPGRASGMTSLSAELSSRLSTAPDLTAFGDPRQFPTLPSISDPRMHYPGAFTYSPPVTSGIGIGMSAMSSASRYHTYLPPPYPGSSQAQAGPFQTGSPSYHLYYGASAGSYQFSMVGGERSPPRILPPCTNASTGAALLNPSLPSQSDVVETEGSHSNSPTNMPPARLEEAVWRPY

No constants are given. Whether binding was seen depends on the method and setting. Binding seen in cells or lysates may run through a third protein. Some binding calls cover weakened binding; strength is not graded here.

In the experiment the target is T1, Foxp3 (mouse (endogenous in SCp2)) (UniProt Q99JB6).
T1 sequence: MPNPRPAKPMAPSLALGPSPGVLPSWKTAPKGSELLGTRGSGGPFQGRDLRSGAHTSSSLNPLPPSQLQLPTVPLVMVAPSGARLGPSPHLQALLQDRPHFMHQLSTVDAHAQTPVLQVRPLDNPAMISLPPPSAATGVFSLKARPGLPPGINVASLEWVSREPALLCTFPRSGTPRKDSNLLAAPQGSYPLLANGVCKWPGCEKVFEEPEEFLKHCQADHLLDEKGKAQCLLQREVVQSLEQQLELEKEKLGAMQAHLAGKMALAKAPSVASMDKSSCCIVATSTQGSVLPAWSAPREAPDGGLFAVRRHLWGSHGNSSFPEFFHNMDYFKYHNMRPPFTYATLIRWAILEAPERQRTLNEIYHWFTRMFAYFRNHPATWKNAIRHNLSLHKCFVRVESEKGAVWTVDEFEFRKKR
Put plainly: co-IP; SCp2 lysate pre-cleared with A/G plus Agarose, incubated with or without anti-Foxp3 antibody (SC-28705) and Agarose at 4°C; precipitate washed with PBS and blotted with anti-Runx1 antibody.

As to Runx1 (from UniProt Q03347 1-451), the binding result is “binds”.
